According to PMC8571522, “siRNA screening identifies METTL9 as a histidine Nπ-methyltransferase that targets the proinflammatory protein S100A9” (The Journal of Biological Chemistry, 2021):
No constants are given. Whether binding was seen depends on the method and setting. Binding seen in cells or lysates may run through a third protein. Binding can be weak; no strength is given. Tags and fused reporters may be left off the sequences shown.

Protein sequences, listed by entry. Tags and fused reporters are not part of them. Lines headed by an entry give the natural chain unless they say otherwise; changes in a name come on top.
UniProt Q9EPL4: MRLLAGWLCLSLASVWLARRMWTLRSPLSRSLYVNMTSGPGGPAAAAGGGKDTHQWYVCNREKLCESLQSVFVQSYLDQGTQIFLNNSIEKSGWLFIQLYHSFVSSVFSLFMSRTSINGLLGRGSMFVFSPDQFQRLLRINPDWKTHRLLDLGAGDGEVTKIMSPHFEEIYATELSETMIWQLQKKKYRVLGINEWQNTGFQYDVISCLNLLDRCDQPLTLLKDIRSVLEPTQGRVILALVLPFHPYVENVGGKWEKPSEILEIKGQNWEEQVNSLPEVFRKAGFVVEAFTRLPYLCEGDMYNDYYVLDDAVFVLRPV

Target: T1, Flag-tagged mouse S100A9 (mouse) (UniProt P31725)
T1 sequence: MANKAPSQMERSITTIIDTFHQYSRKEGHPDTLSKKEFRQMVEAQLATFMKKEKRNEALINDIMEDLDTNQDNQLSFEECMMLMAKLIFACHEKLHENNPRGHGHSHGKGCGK
Test: co-IP; HEK293T cells transiently expressing Flag-S100A9 together with METTL9 (WT)-HA or METTL9 (ΔSP)-HA; lysis buffer 20 mM Hepes-KOH pH 7.9, 150 mM NaCl, 0.1% Triton X-100, 0.1 mM EDTA; precipitated with ANTI-FLAG M2 Affinity Gel, blot with anti-Flag and anti-HA; normal mouse IgG as negative control

binding: binds
Substance: C-terminal hemagglutinin-tagged mouse METTL9 (from UniProt Q9EPL4) (enzyme)
